# Library screen at single concentrations

Sequences of proteins named here, by UniProt entry; tags and fusion partners are left off. Residues count along the entry.
UniProt Q8IDJ8, 1-583: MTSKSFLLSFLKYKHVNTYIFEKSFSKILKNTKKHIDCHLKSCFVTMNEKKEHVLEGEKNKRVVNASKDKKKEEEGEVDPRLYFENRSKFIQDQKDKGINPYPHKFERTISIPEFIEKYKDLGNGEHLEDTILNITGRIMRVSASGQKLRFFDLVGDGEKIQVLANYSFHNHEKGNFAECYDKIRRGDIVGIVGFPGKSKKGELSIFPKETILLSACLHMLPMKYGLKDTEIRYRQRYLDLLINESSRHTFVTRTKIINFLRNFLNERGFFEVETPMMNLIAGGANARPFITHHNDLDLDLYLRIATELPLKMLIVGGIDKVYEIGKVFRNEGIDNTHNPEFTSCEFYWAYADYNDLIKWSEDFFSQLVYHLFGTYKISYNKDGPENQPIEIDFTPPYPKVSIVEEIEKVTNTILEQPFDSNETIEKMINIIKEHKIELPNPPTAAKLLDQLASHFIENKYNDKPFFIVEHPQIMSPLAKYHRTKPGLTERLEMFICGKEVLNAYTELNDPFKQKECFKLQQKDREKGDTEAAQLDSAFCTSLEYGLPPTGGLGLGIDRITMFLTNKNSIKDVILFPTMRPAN
UniProt P9WNZ1, whole entry: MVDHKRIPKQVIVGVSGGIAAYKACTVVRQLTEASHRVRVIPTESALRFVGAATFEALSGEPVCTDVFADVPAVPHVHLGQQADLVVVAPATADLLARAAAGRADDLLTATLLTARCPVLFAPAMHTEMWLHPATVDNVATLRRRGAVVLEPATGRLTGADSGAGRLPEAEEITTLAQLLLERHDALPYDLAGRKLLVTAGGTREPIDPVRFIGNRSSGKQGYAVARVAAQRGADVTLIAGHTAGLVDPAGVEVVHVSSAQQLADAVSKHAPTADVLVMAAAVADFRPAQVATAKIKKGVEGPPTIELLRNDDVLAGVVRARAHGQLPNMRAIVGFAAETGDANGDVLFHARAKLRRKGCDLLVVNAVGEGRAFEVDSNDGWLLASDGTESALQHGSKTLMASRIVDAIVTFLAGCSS

The values are deposited in ChEMBL (CHEMBL3988442, “University of Dundee, Small-Polar-MMV Screening Library” (2021)).

PfKRS1: 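Enzyme assay of the cytosolic lysyl-tRNA synthetase in 384-well plates, read by luminescence. Target: Lysine-tRNA ligase, Plasmodium falciparum 3D7 (UniProt Q8IDJ8). Concentration: 30 µM. Direction is inferred from only a few compounds that gave an IC50; most scored high, so higher reads as stronger inhibition. About 69,000 compounds were tested under these conditions; 0.071% (about 49) showed 50% or more at least once.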
Toxoplasma: 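Assay of Toxoplasma gondii numbers, read through their beta-galactosidase reporter with a colour substrate. Tested at 10 µM. Higher reads as fewer parasites (inferred from which compounds were picked for retests). Of about 67,000 compounds tested this way, about 260 (0.38%) reached 50% or more in at least one test.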
CoaBC: 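Coenzyme A biosynthesis protein CoaBC, Mycobacterium tuberculosis (UniProt P9WNZ1). Enzyme assay of CoaBC with a phosphate dye (Biomol Green) read at 650 nm. Concentration: 30 µM. Direction is inferred from only a few compounds that gave an IC50; most scored high, so higher reads as stronger inhibition. Most strong results did not repeat in a second test. About 67,000 compounds were tested under these conditions; 0.06% (about 40) showed 50% or more at least once.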

The filed quantity is “Percent Effect” (%). The controls that fix the scale are not given in the record; negative values are as filed. Compounds were drawn at random from those tested, without regard to their results. A dash means the value is not listed here; it may have been measured.

compound,PfKRS1,Toxoplasma,CoaBC
c1cc2c(cc1CN1CC[C@H]3[C@H]1CCN3CC1CC1)OCO2,-0.3212,-,-0.7634
O=C(O)C(F)(F)F.O=C(O)C(F)(F)F.O=C(c1cccnc1)N1CCn2nnc(COc3cccnc3)c2C1,-,-10.47,-
CC1(c2ccccc2)CCCN(Cc2cncn2C2CC2)C1 (stereo not given),1.868,20.67,-
O=C(C1CNCCN1C(=O)CCOc1ccccc1)N1CCCC1 (stereo not given),9.642,36.43,4.906
CN(c1ccncn1)C1CC2(CCN(C(=O)CCc3cccs3)C2)C1 (stereo not given),2.113,11.6,8.333
Cn1c(C2CC2)nc2c1CCN(CCOc1cccc(F)c1)C2,1.195,-4.32,7.727
Cc1ccnn1CC(=O)N1CCCN(C2Cc3ccccc3C2)CC1,11.02,18.38,4.673
CCCS(=O)(=O)N1CCN(CCOC)c2nc(C)ccc2C1,5.703,-,5.943
O=C(NC1CC(=O)N(C2Cc3ccccc3C2)C1)c1cnccn1 (stereo not given),5.683,-6.059,-4.069
Cn1ccc(C(=O)N2CCC(Cc3cccc4ncccc34)C2)n1 (stereo not given),1.074,-7.67,0.9709
c1ncc2c(n1)CN(Cc1nc(-c3ccsc3)no1)CC2,1.111,6.105,-1.956
CN(C)C(=O)c1cn[nH]c1C1CCCN1Cc1cncn1C (stereo not given),1.371,-1.698,2.055
CC(C)C1CN(C(=O)c2cccs2)CCS1 (stereo not given),-0.7481,-0.2185,-1.827
CC[C@H](C)Nc1ncc(-c2ccn(C3CCN(C(C)=O)CC3)n2)cn1,2.605,-5.806,-1.325
COc1ccc(CN2C[C@@H]3CC[C@H](C2)N(S(=O)(=O)C2CC2)C3)cc1,2.764,-,-4.551
[H][C@@]12COC[C@@H](C(=O)Nc3cnccn3)[C@]1([H])CN(c1ncc(F)cn1)C2,-,2.394,-
O=C(COCC(F)(F)C(F)F)N1CCC2(CCCN(CCO)C2=O)C1 (stereo not given),4.473,3.425,-
CCNc1cc2c(nn1)CCN(C(=O)c1ccnc(-n3ccnc3)c1)C2,-0.961,5.717,10.77
Cc1cnn(CC(C)NCc2csc(-c3ccco3)n2)c1 (stereo not given),1.282,-0.5062,2.089
CCN(CC)C(CNS(=O)(=O)c1ccc(C(C)=O)cc1)c1ccco1 (stereo not given),7.276,14.02,2.284
Cc1n[nH]c(C)c1NC(=O)CN1CCCC1c1noc(C2CC2)n1 (stereo not given),2.351,-13.73,-0.129
CC(C)N(C)CCCNC(=O)c1cnn(C(C)(C)C)c1C(F)(F)F,-2.388,1.016,-2.871
O=C(O)C(F)(F)F.O=C(O)C(F)(F)F.[H][C@@]12CCN(C(=O)c3cnccn3)C[C@]1([H])[C@@H](CN1CCN(C)CC1)OC2,-,1.54,-
CN(C)C(=O)c1cc(-c2ccc(S(C)(=O)=O)cc2)c2cnn(C)c2n1,0.7937,-10.23,-4.211
COc1ccc(F)cc1C[S+]([O-])CC(=O)NCc1ccccc1 (stereo not given),8.165,1.829,-0.3241
[H][C@]12CCC(=O)N[C@@]1(C)CCCCN2Cc1ccc(F)c(OC)c1,-,-1.415,-
Nc1nc(CN2CCCC2Cn2cncn2)nc2ccccc12 (stereo not given),-1.602,-20.25,-1.619
CC(C)NC(=O)N1CCN(C(=O)C2CCOCC2)CC2(CNC(=O)C2)C1 (stereo not given),1.392,-4.602,0.7519
COCCCC1(CO)CCCN(Cc2cccc(C#N)c2)C1 (stereo not given),1.545,7.86,-0.3636
Fc1cccc(-c2noc3c2CN(Cc2cncn2C2CC2)CC3)c1,2.657,-13.3,2.814
COCC(=O)N1CC[C@@H]2CN(Cc3ccccc3)S(=O)(=O)[C@@H]2CC1,7.605,-,3.257
Cc1cnn(CC2CN(CCS(=O)(=O)c3ccccc3)CCO2)c1 (stereo not given),2.456,1.223,-0.8811
CC(C)c1ccc(C(=O)O)cc1S(=O)(=O)Nc1ccc(=O)n(C)c1,-0.1603,-9.014,17.23
Cn1cnnc1C1CCCN(C(=O)c2ccc3c(c2)OCCCO3)C1 (stereo not given),0.3783,-7.501,6.667
O=C(c1cccc2ccnn12)N1CCC[C@H]1CN1CCCC1,0.9753,-8.063,0.5964
Cc1cnn(CCNCc2cc(=O)n3cc(Cl)ccc3n2)c1,2.338,3.837,2.233
O=C(O)C(F)(F)F.O=C(c1cscn1)N1CCCC2(CCN2Cc2cccc(F)c2)C1 (stereo not given),-,-39.25,-
CNC(=O)CN1CCC(CN(C)CCSc2ccccc2)CC1,0.5187,2.082,-1.818
O=C(C1CCCC1)N1CCCC2(CCN(c3cnccn3)CC2)C1,5.874,-,1.018
CCN1Cc2ccccc2CC2(CCN(C)CC2)C1=O,4.317,11.92,2.927
O=C(c1cscn1)N1CCC(Cn2cc(-c3ccsc3)nn2)CC1,-3.037,-9.913,2.575
CC(C)C(=O)N1CCC12CCCN(C(=O)c1ccnnc1)C2 (stereo not given),1.278,-8.371,3.462
O=C(Nc1ccc2c(c1)C(=O)NC2)c1ccc(S(=O)(=O)C(F)(F)F)cc1,4.033,19.86,-0.8872
CCNc1cc2c(nn1)CCN(C(=O)C1Cc3ccccc3S1)C2 (stereo not given),1.417,-32.99,3.121
CC(C)c1nc(CN(C)C2CCN(Cc3nc(C4CC4)no3)C2)no1 (stereo not given),-3.443,3.065,-2.345
Cc1ncc2c(n1)CN(Cc1noc(C3CC3)n1)CC2,7.454,6.458,3.855
COc1ccc(CC(=O)N2CCCC(n3cc(C)cn3)C2)c(OC)c1 (stereo not given),0.9725,18.51,-1.828
CC(=O)N1[C@H](CN(C)C)C[C@@H]2CN(C(=O)c3cccn3C)CC[C@@H]21,6.737,-,8.366
COc1cc(NC(=O)N2CCCC2c2nncn2C)ccc1Br (stereo not given),2.877,-2.436,-8.726
CCC1=N[C@@]2(CC[C@@H]3CN(Cc4ccc(C)cc4)C[C@@H]32)C(=O)N1C,5.302,-,3.21
CC(c1ccco1)n1cc(-c2cc(CN3CCCC3)cs2)nn1 (stereo not given),5.981,-7.398,-9.504
COC(=O)C1CCCN1C(=O)c1cc(CC(C)C)no1 (stereo not given),1.496,-1.092,2.071
CSc1ccc2cc(CN(C)CCCN(C)C)c(=O)[nH]c2c1,11.1,-10.32,-29.06
CCC(Nc1nccc(C2CCCC2)n1)c1ncccc1C (stereo not given),-2.509,-6.944,2.336
COc1ccc(CNCC2CCN(c3ccccc3OC)C2)cc1O (stereo not given),2.649,-28.51,-3.07
CCOc1cc(F)ccc1NS(=O)(=O)c1cc(C)c(C(=O)O)s1,9.614,1.435,12.33
CC(C)Oc1ccc(-c2csc(Cn3ccc(=O)[nH]c3=O)n2)cc1,5.4,1.199,-3.089
O=C(CC1CCCC1)N1CCCC1c1nc(O)cc(-c2ccccn2)n1 (stereo not given),-1.837,17.36,-3.333
CCOc1ccc(C(=O)CCC(=O)N(C)Cc2nc(C)c[nH]2)cc1C,3.234,-3.483,3.398
Cc1cc(C)n(Cc2ccc(-c3noc(C(=O)NCCO)n3)cc2)n1,3.043,-20.82,0
N[C@H]1CN(C(=O)Cc2ccc(CO)cc2)C[C@@H]1C1CC1,0.5808,9.973,5.488
Cc1cnn(CCNCc2nnc(-c3ccc(F)cc3)o2)c1,0.8977,17.4,-4.021
Cc1cnc(CN2CCN(C(C)c3nc(C(C)C)no3)CC2)cn1 (stereo not given),5.198,0.9091,11.2
COCCC(=O)Nc1ccnn1-c1ccccc1,4.396,11.7,3.929
CC(C)Cc1nc(CN(C)CCOc2ccc(F)cc2)no1,3.038,-6.639,0
COc1ccc2c(c1)nc1n2[C@@H](CNC(=O)c2ccccn2)COC1,8.109,7.336,11.06
CC(C)(C)NC(=O)CNC(=O)Nc1cc(-c2ccccc2)ns1,1.605,-19.99,5.443

For reference, 7 entries once more:

O=C(C1CCCC1)N1CCCC2(CCN(c3cnccn3)CC2)C1 gave PfKRS1: 5.874%; CoaBC: 1.018%.
Cc1cnn(CC(C)NCc2csc(-c3ccco3)n2)c1 (stereo not given) gave PfKRS1: 1.282%; Toxoplasma: -0.5062%; CoaBC: 2.089%.
CCOc1cc(F)ccc1NS(=O)(=O)c1cc(C)c(C(=O)O)s1 gave PfKRS1: 9.614%; Toxoplasma: 1.435%; CoaBC: 12.33%.
[H][C@]12CCC(=O)N[C@@]1(C)CCCCN2Cc1ccc(F)c(OC)c1 gave Toxoplasma: -1.415%.
Cc1cnc(CN2CCN(C(C)c3nc(C(C)C)no3)CC2)cn1 (stereo not given) gave PfKRS1: 5.198%; Toxoplasma: 0.9091%; CoaBC: 11.2%.
Cn1ccc(C(=O)N2CCC(Cc3cccc4ncccc34)C2)n1 (stereo not given) gave PfKRS1: 1.074%; Toxoplasma: -7.67%; CoaBC: 0.9709%.
COc1ccc(CC(=O)N2CCCC(n3cc(C)cn3)C2)c(OC)c1 (stereo not given) gave PfKRS1: 0.9725%; Toxoplasma: 18.51%; CoaBC: -1.828%.